Reference: article PMC6030175

Tested on: RPA
Experiment: EMSA
Conditions: 5 mM Mg2+, RPA 10 nM, DNA 1 nM, positive control; EMSA: 20 mM HEPES pH 7.4, 0.1% NP-40, 0.1 M KCl, 5 mM MgCl2, 1% glycerol, 0.25 ug/uL BSA, 1 mM DTT, 30 min, room temperature; 5% native gel, 0.5x TBE; recombinant protein; label: 5' 32P; single-stranded DNA

Q: Does “AACGTCATAGACGATTACATTGCTAGGACATCTTTGCCCACGTTGACCCA [X4]” bind?
A: Result: binds

Construct, isoform or probe ends are uncertain for at least one entry. At least one verdict rests on a figure or table, not on a statement of the authors.
